Literature values as cited in patent publication US20260191797A1, “AMPHIPHILIC POLY(AMINO ACID) LINEAR BLOCK COPOLYMERS AND NANOPARTICLES THEREOF FOR DRUG DELIVERY APPLICATIONS” (Nanothera Biosciences Inc., priority 2022, published 2026).

Details: free paclitaxel

PTX solubility in water: lower than 0.1 μg/mL
SMILES: CC(=O)O[C@H]1C(=O)[C@@]2(C)[C@H]([C@H](OC(=O)c3ccccc3)[C@]3(O)C[C@H](OC(=O)[C@H](O)[C@@H](NC(=O)c4ccccc4)c4ccccc4)C(C)=C1C3(C)C)[C@]1(OC(C)=O)CO[C@@H]1C[C@@H]2O [PTX, Paclitaxel]
